Test results from publication PMC9925306.
No constants are given. Whether binding was seen depends on the method and setting. Binding seen in cells or lysates may run through a third protein. Some results given as binding are weak or reduced against the parent protein; the word gives no strength. For some assays here: Where a sequence is shown, tags or fusion partners need not be part of it.

By UniProt entry, the sequences of proteins in these tests, tags left out.
UniProt P06463: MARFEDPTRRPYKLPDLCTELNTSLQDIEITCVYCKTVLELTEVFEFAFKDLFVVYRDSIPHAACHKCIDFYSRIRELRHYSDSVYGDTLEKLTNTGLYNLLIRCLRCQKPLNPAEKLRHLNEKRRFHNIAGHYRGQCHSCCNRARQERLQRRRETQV
UniProt P03126: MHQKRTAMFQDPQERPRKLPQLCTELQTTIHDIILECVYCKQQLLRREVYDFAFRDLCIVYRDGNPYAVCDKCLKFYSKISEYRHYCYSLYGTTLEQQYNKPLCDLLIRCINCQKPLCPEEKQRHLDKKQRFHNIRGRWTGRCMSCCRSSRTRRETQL
UniProt P06788: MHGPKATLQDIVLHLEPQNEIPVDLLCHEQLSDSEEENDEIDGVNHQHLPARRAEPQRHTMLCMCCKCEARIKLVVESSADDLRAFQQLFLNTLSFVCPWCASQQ
UniProt P03129: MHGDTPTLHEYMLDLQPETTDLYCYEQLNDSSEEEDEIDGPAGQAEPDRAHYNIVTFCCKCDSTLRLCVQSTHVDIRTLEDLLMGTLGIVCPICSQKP
UniProt P12956: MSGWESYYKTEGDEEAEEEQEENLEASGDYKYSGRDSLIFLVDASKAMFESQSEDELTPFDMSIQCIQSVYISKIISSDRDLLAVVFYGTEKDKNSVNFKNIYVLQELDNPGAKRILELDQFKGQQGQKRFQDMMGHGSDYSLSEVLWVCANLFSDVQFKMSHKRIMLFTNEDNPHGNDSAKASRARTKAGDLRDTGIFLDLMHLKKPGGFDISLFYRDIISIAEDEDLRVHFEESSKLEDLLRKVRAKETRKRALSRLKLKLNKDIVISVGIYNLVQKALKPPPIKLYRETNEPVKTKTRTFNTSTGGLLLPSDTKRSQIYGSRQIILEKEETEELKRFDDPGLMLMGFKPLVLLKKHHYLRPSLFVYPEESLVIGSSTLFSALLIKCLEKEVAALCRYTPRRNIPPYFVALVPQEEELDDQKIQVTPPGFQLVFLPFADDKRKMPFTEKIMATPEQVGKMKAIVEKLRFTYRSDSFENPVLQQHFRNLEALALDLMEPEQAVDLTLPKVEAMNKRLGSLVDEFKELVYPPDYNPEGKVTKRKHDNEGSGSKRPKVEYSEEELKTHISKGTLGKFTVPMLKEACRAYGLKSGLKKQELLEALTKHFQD
UniProt P51948: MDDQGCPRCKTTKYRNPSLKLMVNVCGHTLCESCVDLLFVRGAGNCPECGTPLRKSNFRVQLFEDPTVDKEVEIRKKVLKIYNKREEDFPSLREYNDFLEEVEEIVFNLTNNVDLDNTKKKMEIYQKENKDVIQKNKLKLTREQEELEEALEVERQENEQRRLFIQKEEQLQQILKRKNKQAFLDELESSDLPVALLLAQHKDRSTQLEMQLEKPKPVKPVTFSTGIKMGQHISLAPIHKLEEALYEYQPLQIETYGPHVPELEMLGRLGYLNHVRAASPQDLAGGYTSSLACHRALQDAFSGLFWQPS

Assays:
[1] = molecular target: Gluc2-HPV33 E6 (HPV33) (UniProt P06427); test: split reporter; Gaussia princeps luciferase complementation assay (GPCA): HEK-293T co-transfected with 100 ng pSpica-N2-HPV E6 or E7 (Gluc2) and 100 ng pSpica-N1 (Gluc1, DNA repair library); 24 h, Renilla lysis buffer 30 min at room temperature, luminescence as RLU or normalized luminescence ratio (NLR)
[2] = molecular target: Gluc2-HPV18 E6 (HPV18) (UniProt P06463); test: as above
[3] = molecular target: Gluc2-HPV16 E6 (HPV16) (UniProt P03126); test: as above
[4] = molecular target: Gluc2-HPV39 E6 (HPV39) (UniProt P24835); test: as above
[5] = molecular target: 3xFLAG-HPV16 E6 (HPV16) (UniProt P03126); test: co-IP; HEK-293T co-transfected with pCineo-3xFLAG HPV16 E6 or E7 and pSpica-N1 (Gluc1 fusion); lysis in 50 mM Tris-HCl pH7.4, 150 mM NaCl, 1 mM EDTA, 1% Triton X-100; anti-Flag M2 magnetic beads overnight; blot with anti-Gaussia luciferase antibody
[6] = molecular target: T1, Gluc2-HPV33 E7 (HPV33) (UniProt P06429); test: split reporter; Gaussia princeps luciferase complementation assay (GPCA): HEK-293T co-transfected with 100 ng pSpica-N2-HPV E6 or E7 (Gluc2) and 100 ng pSpica-N1 (Gluc1, DNA repair library); 24 h, Renilla lysis buffer 30 min at room temperature, luminescence as RLU or normalized luminescence ratio (NLR)
T1 sequence: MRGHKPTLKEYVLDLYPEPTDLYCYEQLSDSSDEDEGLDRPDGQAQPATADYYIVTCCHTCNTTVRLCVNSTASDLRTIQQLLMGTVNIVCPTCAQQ

[7] = molecular target: T2, Gluc2-HPV39 E7 (HPV39) (UniProt P24837); test: as above
T2 sequence: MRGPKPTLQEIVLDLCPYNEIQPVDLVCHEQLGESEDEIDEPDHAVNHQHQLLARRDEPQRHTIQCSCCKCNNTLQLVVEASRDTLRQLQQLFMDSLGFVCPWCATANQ

[8] = molecular target: Gluc2-HPV18 E7 (HPV18) (UniProt P06788); test: as above
[9] = molecular target: Gluc2-HPV16 E7 (HPV16) (UniProt P03129); test: as above
[10] = molecular target: 3xFLAG-HPV16 E7 (HPV16) (UniProt P03129); test: co-IP; HEK-293T co-transfected with pCineo-3xFLAG HPV16 E6 or E7 and pSpica-N1 (Gluc1 fusion); lysis in 50 mM Tris-HCl pH7.4, 150 mM NaCl, 1 mM EDTA, 1% Triton X-100; anti-Flag M2 magnetic beads overnight; blot with anti-Gaussia luciferase antibody

Measured: binding

Gluc1-XRCC6 (from UniProt P12956 1-609)
binds: [1] | [2] | [3] | [4] | [5]

Gluc1-RPA1 (from UniProt P27694 1-616)
binds: [1] | [2] | [3] | [4] | [5]

Gluc1-CLK2 (from UniProt P49760 1-499)
binds: [1] | [2] | [3] | [4] | [5]

Gluc1-MNAT1 (from UniProt P51948 1-309)
binds: [1] | [2] | [3] | [4] | [5]

Gluc1-UVSSA (from UniProt Q2YD98 1-709)
binds: [1] | [2] | [3] | [4] | [5]

B1: Gluc1-ALKBH2 (protein, UniProt Q6NS38 1-261)
chain: MDRFLVKGAQGGLLRKQEEQEPTGEEPAVLGGDKESTRKRPRREAPGNGGHSAGPSWRHIRAEGLDCSYTVLFGKAEADEIFQELEKEVEYFTGALARVQVFGKWHSVPRKQATYGDAGLTYTFSGLTLSPKPWIPVLERIRDHVSGVTGQTFNFVLINRYKDGCDHIGEHRDDERELAPGSPIASVSFGACRDFVFRHKDSRGKSPSRRVAVVRLPLAHGSLLMMNHPTNTHWYHSLPVRKKVLAPRVNLTFRKILLTKK
binds: [6] | [7] | [8] | [9] | [10]

B2: Gluc1-DNA2 (protein, UniProt P51530 1-1060)
chain: MEQLNELELLMEKSFWEEAELPAELFQKKVVASFPRTVLSTGMDNRYLVLAVNTVQNKEGNCEKRLVITASQSLENKELCILRNDWCSVPVEPGDIIHLEGDCTSDTWIIDKDFGYLILYPDMLISGTSIASSIRCMRRAVLSETFRSSDPATRQMLIGTVLHEVFQKAINNSFAPEKLQELAFQTIQEIRHLKEMYRLNLSQDEIKQEVEDYLPSFCKWAGDFMHKNTSTDFPQMQLSLPSDNSKDNSTCNIEVVKPMDIEESIWSPRFGLKGKIDVTVGVKIHRGYKTKYKIMPLELKTGKESNSIEHRSQVVLYTLLSQERRADPEAGLLLYLKTGQMYPVPANHLDKRELLKLRNQMAFSLFHRISKSATRQKTQLASLPQIIEEEKTCKYCSQIGNCALYSRAVEQQMDCSSVPIVMLPKIEEETQHLKQTHLEYFSLWCLMLTLESQSKDNKKNHQNIWLMPASEMEKSGSCIGNLIRMEHVKIVCDGQYLHNFQCKHGAIPVTNLMAGDRVIVSGEERSLFALSRGYVKEINMTTVTCLLDRNLSVLPESTLFRLDQEEKNCDIDTPLGNLSKLMENTFVSKKLRDLIIDFREPQFISYLSSVLPHDAKDTVACILKGLNKPQRQAMKKVLLSKDYTLIVGMPGTGKTTTICTLVRILYACGFSVLLTSYTHSAVDNILLKLAKFKIGFLRLGQIQKVHPAIQQFTEQEICRSKSIKSLALLEELYNSQLIVATTCMGINHPIFSRKIFDFCIVDEASQISQPICLGPLFFSRRFVLVGDHQQLPPLVLNREARALGMSESLFKRLEQNKSAVVQLTVQYRMNSKIMSLSNKLTYEGKLECGSDKVANAVINLRHFKDVKLELEFYADYSDNPWLMGVFEPNNPVCFLNTDKVPAPEQVEKGGVSNVTEAKLIVFLTSIFVKAGCSPSDIGIIAPYRQQLKIINDLLARSIGMVEVNTVDKYQGRDKSIVLVSFVRSNKDGTVGELLKDWRRLNVAITRAKHKLILLGCVPSLNCYPPLEKLLNHLNSEKLIIDLPSREHESLCHILGDFQRE
binds: [6] | [7] | [8] | [9] | [10]

B3: Gluc1-PARP3 (protein, UniProt Q9Y6F1 1-533)
chain: MAPKPKPWVQTEGPEKKKGRQAGREEDPFRSTAEALKAIPAEKRIIRVDPTCPLSSNPGTQVYEDYNCTLNQTNIENNNNKFYIIQLLQDSNRFFTCWNRWGRVGEVGQSKINHFTRLEDAKKDFEKKFREKTKNNWAERDHFVSHPGKYTLIEVQAEDEAQEAVVKVDRGPVRTVTKRVQPCSLDPATQKLITNIFSKEMFKNTMALMDLDVKKMPLGKLSKQQIARGFEALEALEEALKGPTDGGQSLEELSSHFYTVIPHNFGHSQPPPINSPELLQAKKDMLLVLADIELAQALQAVSEQEKTVEEVPHPLDRDYQLLKCQLQLLDSGAPEYKVIQTYLEQTGSNHRCPTLQHIWKVNQEGEEDRFQAHSKLGNRKLLWHGTNMAVVAAILTSGLRIMPHSGGRVGKGIYFASENSKSAGYVIGMKCGAHHVGYMFLGEVALGREHHINTDNPSLKSPPPGFDSVIARGHTEPDPTQDTELELDGQQVVVPQGQPVPCPEFSSSTFSQSEYLIYQESQCRLRYLLEVHL
binds: [6] | [7] | [8] | [9] | [10]

B4: Gluc1-PMS1 (protein, UniProt P54277 1-932)
chain: MKQLPAATVRLLSSSQIITSVVSVVKELIENSLDAGATSVDVKLENYGFDKIEVRDNGEGIKAVDAPVMAMKYYTSKINSHEDLENLTTYGFRGEALGSICCIAEVLITTRTAADNFSTQYVLDGSGHILSQKPSHLGQGTTVTALRLFKNLPVRKQFYSTAKKCKDEIKKIQDLLMSFGILKPDLRIVFVHNKAVIWQKSRVSDHKMALMSVLGTAVMNNMESFQYHSEESQIYLSGFLPKCDADHSFTSLSTPERSFIFINSRPVHQKDILKLIRHHYNLKCLKESTRLYPVFFLKIDVPTADVDVNLTPDKSQVLLQNKESVLIALENLMTTCYGPLPSTNSYENNKTDVSAADIVLSKTAETDVLFNKVESSGKNYSNVDTSVIPFQNDMHNDESGKNTDDCLNHQISIGDFGYGHCSSEISNIDKNTKNAFQDISMSNVSWENSQTEYSKTCFISSVKHTQSENGNKDHIDESGENEEEAGLENSSEISADEWSRGNILKNSVGENIEPVKILVPEKSLPCKVSNNNYPIPEQMNLNEDSCNKKSNVIDNKSGKVTAYDLLSNRVIKKPMSASALFVQDHRPQFLIENPKTSLEDATLQIEELWKTLSEEEKLKYEEKATKDLERYNSQMKRAIEQESQMSLKDGRKKIKPTSAWNLAQKHKLKTSLSNQPKLDELLQSQIEKRRSQNIKMVQIPFSMKNLKINFKKQNKVDLEEKDEPCLIHNLRFPDAWLMTSKTEVMLLNPYRVEEALLFKRLLENHKLPAEPLEKPIMLTESLFNGSHYLDVLYKMTADDQRYSGSTYLSDPRLTANGFKIKLIPGVSITENYLEIEGMANCLPFYGVADLKEILNAILNRNAKEVYECRPRKVISYLEGEAVRLSRQLPMYLSKEDIQDIIYRMKHQFGNEIKECVHGRPFFHHLTYLPETT
binds: [6] | [7] | [8] | [9] | [10]

B5: Gluc1-ENDOV (protein, UniProt Q8N8Q3 1-282)
chain: MALEAAGGPPEETLSLWKREQARLKAHVVDRDTEAWQRDPAFSGLQRVGGVDVSFVKGDSVRACASLVVLSFPELEVVYEESRMVSLTAPYVSGFLAFREVPFLLELVQQLREKEPGLMPQVLLVDGNGVLHHRGFGVACHLGVLTDLPCVGVAKKLLQVDGLENNALHKEKIRLLQTRGDSFPLLGDSGTVLGMALRSHDRSTRPLYISVGHRMSLEAAVRLTCCCCRFRIPEPVRQADICSREHIRKSLGLPGPPTPRSPKAQRPVACPKGDSGESSALC
binds: [6] | [7] | [8] | [9] | [10]
